According to PubChem BioAssay AID1259415 (National Center for Advancing Translational Sciences (NCATS), 2018):
About 18,000 (4.4%) of roughly 410,000 compounds were called active. Inconclusive means that the source gave no clear call. Such entries were picked first, then a sample of the others. Cut-off read from the data, not from the text of the source: active = activity change below about -60%; inconclusive = no clear call, values can overlap the other calls; inactive = above about -39%.

Assay: qHTS Assay for inhibitors of the human cytomegalovirus (HCMV)
Conditions: HFF cells, HCMV-luciferase reporter, 72 h; at 57.5 µM; stronger effect = lower value
Outline: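 After 16 h attachment at 37C, HFF cells received test compound and HCMV-luciferase (1 PFU/cell); reporter luminescence read 72 h later, data normalized against buffer-only and known inhibitor Salinomycin.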
% is set by controls: 0 for no effect and ±100 for the full control effect.

Row | Compound | activity change, negative = inhibition
1 | Cc1cc(C)c(C(=O)Nc2ccccc2)c(SCC(=O)Nc2ccc(Br)cc2C)n1 | active: -69.2%
2 | CCCCOc1cccc2c(=O)n(CC(=O)Nc3ccc4c(c3)OCCO4)ccc12 | inactive: -4.09%
3 | CCOc1ccc(N(CC(=O)NC2CCCCCC2)S(=O)(=O)c2c(C)noc2C)cc1 | inconclusive: -56.7%
4 | CCCCn1c(=S)[nH]c2ccccc2c1=O | inconclusive: -58.7%
5 | O=C(NCCCN1CCCCC1)c1cc(Sc2ccc(Cl)cc2)nc2ccccc12 | active: -70.7%
6 | O=C(/C=C/c1ccc(S(=O)(=O)N2CCOCC2)cc1)NCc1ccccc1Cl | inconclusive: -47.2%
7 | CC(C)N(Cc1ccccc1)C(=O)C1CCCN(c2ncnc3c2nc2n3CCCCC2)C1 (stereo not drawn) | active: -60.4%
8 | C=CCNC(=O)/C(C#N)=C/c1ccc(SC)cc1 | inconclusive: -50.1%
9 | Cc1[nH]c2ccccc2c1CCN(Cc1cccnc1)C(=S)Nc1ccc(F)cc1 | inactive: -23.8%
10 | Cc1onc(-c2c(Cl)cccc2Cl)c1C(=O)ONC(=O)c1cc(C(F)(F)F)cc(C(F)(F)F)c1 | active: -98.7%
11 | CCCCCCCCN1C(=O)[C@H](CC(=O)N2CCN(C(=O)C3CC3)CC2)C[C@@]2(C(=O)OC)CC(C)(C)CC=C12 | inactive: 7.22%
12 | Cc1[nH]n(-c2ccccc2)c(=O)c1C=Nc1cnc2ccccc2c1 | inactive: -10.7%
13 | CCOC1=C2[C@H](c3ccccc3)N(S(=O)(=O)c3ccc(C)cc3)[C@H](C(C)C)[C@H]2n2c(=O)n(-c3ccccc3)c(=O)n2C1 | inactive: 2.86%
14 | Cc1ccc(NC(=S)NC(NC(=O)c2ccccc2)C(Cl)(Cl)Cl)c(C)c1 (stereo not drawn) | active: -67.9%
15 | Cc1ccc(NC(=S)N2CCCC(c3nc4ccccc4[nH]3)C2)cc1 (stereo not drawn) | inactive: -26%
16 | COc1ccc(NC(C)=O)cc1NC(=O)c1ccc(C#N)cc1 | inconclusive: -46.1%
17 | COc1ccccc1NC(=O)CCCN1C(=O)C(c2ccccc2)Oc2cccnc21 (stereo not drawn) | inconclusive: -52.2%
18 | Cc1ccc(S(=O)(=O)N2CCC(C(=O)N[C@@H](C)C(=O)NCc3ccccc3)CC2)cc1 | inconclusive: -41.8%
19 | Cc1cc(CNC(=O)C(C)n2nc(C)c([N+](=O)[O-])c2C)c2ccccc2n1 (stereo not drawn) | inconclusive: -44.6%
20 | Cc1nnc(SCC(=O)Nc2ccccc2)c2ccccc12 | inactive: 5.42%
21 | CC(C(=O)OCC(=O)c1cccc([N+](=O)[O-])c1)N1C(=O)C2C3CCC(C3)C2C1=O (stereo not drawn) | inconclusive: -54.5%
22 | CCN(Cc1ccccc1)S(=O)(=O)c1cc(C(=O)NC(C)C2CC3CCC2C3)ccc1OC (stereo not drawn) | active: -88.4%

Structures from the list above that have four or more nitrogen atoms (six):
Row | Compound | activity change, negative = inhibition
7 | CC(C)N(Cc1ccccc1)C(=O)C1CCCN(c2ncnc3c2nc2n3CCCCC2)C1 (stereo not drawn) | active: -60.4%
9 | Cc1[nH]c2ccccc2c1CCN(Cc1cccnc1)C(=S)Nc1ccc(F)cc1 | inactive: -23.8%
12 | Cc1[nH]n(-c2ccccc2)c(=O)c1C=Nc1cnc2ccccc2c1 | inactive: -10.7%
13 | CCOC1=C2[C@H](c3ccccc3)N(S(=O)(=O)c3ccc(C)cc3)[C@H](C(C)C)[C@H]2n2c(=O)n(-c3ccccc3)c(=O)n2C1 | inactive: 2.86%
15 | Cc1ccc(NC(=S)N2CCCC(c3nc4ccccc4[nH]3)C2)cc1 (stereo not drawn) | inactive: -26%
19 | Cc1cc(CNC(=O)C(C)n2nc(C)c([N+](=O)[O-])c2C)c2ccccc2n1 (stereo not drawn) | inconclusive: -44.6%

Carrying on.

Row | Compound | activity change, negative = inhibition
23 | Cc1cc(NC2CCCC2)n2ncc(-c3ccccc3)c2n1 | active: -90%
24 | Cc1ccc(CCNC(=O)CS(=O)Cc2nc(-c3ccccc3F)oc2C)cc1 (stereo not drawn) | inconclusive: -54.2%
25 | CCC(C)NC(=O)c1c(-c2ccccc2)c(-c2ccccc2)nn(C)c1=O (stereo not drawn) | inactive: 28.2%
26 | CCOC(=O)N1CCN(C(=O)C2CCCN(S(=O)(=O)c3ccccc3)C2)CC1 (stereo not drawn) | inconclusive: -40.1%
27 | CC(NC(=O)Cn1c(-c2cccs2)cc2cc(F)ccc21)c1ccccc1 (stereo not drawn) | inactive: -37%
28 | CC1=C(C(=O)OCc2ccc3c(c2)OCO3)C(c2ccc(O)c([N+](=O)[O-])c2)NC(=O)N1 (stereo not drawn) | inconclusive: -51.8%
29 | Cc1ccnc(NC(=O)C(C)n2cc([N+](=O)[O-])cn2)c1 (stereo not drawn) | inconclusive: -57.8%
30 | CN(CCc1ccccc1)C(=O)c1ccc(NC(=O)Cc2ccc(NC(=O)C3CCCN(C(=O)C4CCCCC4)C3)cc2)cc1 (stereo not drawn) | inconclusive: -50.3%
31 | Cc1ccc(C(=O)OCC(=O)NCCN2C(=O)CSC2=O)cc1 | inconclusive: -48.6%
32 | Cc1ccc(N(Cc2ccccc2)C(=O)c2ccc(S(=O)(=O)N3CCOCC3)cc2)cc1 | inconclusive: -48.8%
33 | CCCc1nc2oc3c(NCCOCCO)ncnc3c2c2c1COC(C)(C)C2 | active: -102%
34 | Cc1ccc(NC(=O)/C=C/c2ccc(S(=O)(=O)N3CCOCC3)cc2)cc1S(=O)(=O)N(C)C | active: -74.4%
35 | O=C(Nc1ccc(N=Nc2ccccc2)c(NC(=O)C2CCCO2)c1)C1CCCO1 (stereo not drawn) | active: -61.2%
36 | O=C(CCC(=O)Nc1ccccc1)NNC(=O)C(c1ccccc1)c1ccccc1 | inactive: -32%
37 | Cc1nc2nc(NC(=O)c3ccc(Cl)cc3)[nH]n2c(=O)c1Cc1ccccc1 | inactive: -18.3%
38 | CC1=C(C(=O)Nc2ccccc2C)C(c2ccccn2)n2nc(SCc3ccccc3F)nc2N1 (stereo not drawn) | inactive: 44.4%
39 | COc1ccc(CNC(=O)c2ccccc2NS(C)(=O)=O)cc1 | inconclusive: -54.2%
40 | COc1ccc(NC(=O)C(C)SCc2ccccc2)cc1OC (stereo not drawn) | inactive: -31.3%
41 | CN(Cc1ccccc1)Cc1c(O)ccc2ccccc12 | inactive: 27.2%
42 | COc1cc(/C=N/NC(N)=S)cc(Br)c1OCc1ccccc1F | inconclusive: -43.2%
43 | Cn1ncc(Cl)c1C(=O)N1CCN(c2ncccn2)CC1 | inconclusive: -42.9%
